The campaign covered roughly 400,000 compounds. About 5,500 (1.4%) were called active. The inconclusive results got no clear call from the source; some entries with a clear call stand among them for comparison. Calls follow the shape of the dose curve; as a rule, active = well fitted cell-killing curve with a large enough effect; inconclusive = small, poorly fitted or top-dose-only effect, or effect the other way; inactive = flat fitted curve, though single readings scatter. Potencies of inconclusive entries are doubtful fits and often do not repeat.
Assay: qHTS assay for MDR1-selective chemotherapeutics: Primary screen using the parental adenocarcinoma cell KB-3-1; also: nearly all actives have a fitted effect of over 60% in size
Details: KB-3-1 viability, CellTiter-Glo ATP luminescence, 72 h; activity change, negative = cytotoxic: at 46.1 µM (top of the series)
Method in brief: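 Cells are dispensed, compounds pinned in, plates held at 37 °C for 72 h, then CellTiter-Glo is added and luminescence read after 10 minutes. Cell line: parental KB-3-1 in phenol-red-free DMEM, 10% FBS.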
% is scaled to controls: 0 for no effect and ±100 for the full control effect; potency is read from the fitted curve at half-maximal effect.

SMILES | Potency | activity change, negative = cytotoxic
N#Cc1c(NC(=O)c2ccncc2)sc2c1CCC2 | inconclusive: 25.9 µM [cytotoxic, partial curve, poor fit] | –
N#Cc1c(N)[nH]c2ccc(Sc3ccccc3)cc12 | active: 2.31 µM | –
COc1ccc(Cl)cc1NC(=O)c1nnn(CC(=O)Nc2ccc3c(c2)OCO3)c1N | – | inactive: 1%
CCOC(=O)N1CCC(NC(=O)c2ccc3nc(N4CCOCC4)sc3c2)CC1 | inconclusive: 2.31 µM [cytotoxic, partial curve, poor fit] | –
CC1CC(C)CN(c2ncc3c(n2)CC(c2ccccc2Cl)CC3=O)C1 (configuration not stated) | inconclusive: 29.1 µM [cytotoxic, single point] | –
COc1ccc(-n2c(SCC(=O)Nc3cc(C(=O)O)ccc3C)nc3ccccc3c2=O)cc1Cl | – | inactive: -1.47%
CN(C)CCNc1ncnc2c1ncn2[C@H]1CN(Cc2ccc(F)cc2)C[C@@H](CO)O1 | active: 8.2 µM | –
O=C1CN(C(=O)c2cc(Br)c(Br)s2)c2ccccc2N1 | inconclusive: 20.6 µM [cytotoxic, partial curve, poor fit] | –
Cc1ccc(N(CC(=O)N2CCCCCC2)S(C)(=O)=O)cc1 | – | inactive: 2.67%
CN(C)CCN(C(=O)/C=C/c1cccs1)c1nc2c(F)cc(F)cc2s1 | inconclusive: 29.1 µM [cytotoxic, single point] | –
CC(C)(C)c1ccc(C(=O)Nc2ccc(CN3CCS(=O)(=O)CC3)cc2)cc1 | inconclusive: 16.4 µM [cytotoxic, partial curve, poor fit] | –
Cc1cccc(C)c1-n1nnnc1C(c1ccnc2ccccc12)N(C)Cc1ccc(Cl)c(Cl)c1 (configuration not stated) | inconclusive: 29.1 µM [cytotoxic, single point] | –
COC(=O)C1=C(N)Oc2cc(C)[nH]c(=O)c2C1c1cccnc1 (configuration not stated) | inconclusive: 20.6 µM [rising, partial curve, poor fit] | –
COc1cc(/C=N/NC(=O)c2sc3ccccc3c2Cl)ccc1OC(=O)c1ccc([N+](=O)[O-])cc1 | – | inconclusive: 13.5%
O=C(NNC(=O)c1ccccc1O)c1ccc(S(=O)(=O)Nc2ccccc2)cc1 | inconclusive: 18.4 µM [cytotoxic, single point] | –
Oc1c(Br)cc(Br)cc1/C=N/Nc1ccc(Cl)nn1 | inconclusive: 0.92 µM [cytotoxic, full curve, poor fit] | –
Nc1ccc[n+](CC(=O)c2ccc(F)cc2)c1 | – | inconclusive: -14.7%
CCOC(=O)N/N=C(\C)c1ccc(-n2cnnn2)cc1 | – | inactive: 13.9%
CCC/C=C/c1ccc(CN2C(C(C)C)C(=O)N(Cc3cn(CCC4OCCO4)nn3)CCS2(=O)=O)cc1 (configuration not stated) | – | inactive: -20%
CCCCCc1cc(=O)oc2c(C(CCN3CCCC(C)C3)c3ccc(OC)cc3)c(OC)cc(OC)c12 (configuration not stated) | inconclusive: 29.1 µM [cytotoxic, single point] | –
Brc1ccc(-c2nc(-c3ccccc3)no2)o1 | inconclusive: 13 µM [cytotoxic, partial curve, poor fit] | –
COc1ccc(-c2csc(Nc3ccccc3)[n+]2CC(O)c2ccc([N+](=O)[O-])cc2)cc1 (configuration not stated) | inconclusive: 18.4 µM [cytotoxic, single point] | –
Oc1ccc(Cl)cc1CNCc1ccc(Cl)nc1 | – | inactive: 0.485%
O=C(O)c1ccccc1OC1=NS(=O)(=O)c2ccccc21 | inconclusive: 2.31 µM [rising, full curve] | –

SMILES | Potency | activity change, negative = cytotoxic
O=C(CCl)Nc1ccc(S(=O)(=O)Nc2nccs2)cc1 | inconclusive: 16.4 µM [cytotoxic, single point] | –
CCOC(=O)c1ccc(NC(=S)N(CCN(C)C)Cc2cccs2)cc1 | inconclusive: 20.6 µM [cytotoxic, single point] | –
Cc1cc(C)c(NC(=O)CSc2nnc(-c3ccccn3)n2N)c(Cl)c1 | – | inactive: -0.38%
O=C(COC(=O)c1ccc(Cl)c(S(=O)(=O)N2CCCC2)c1)NC1CCCCC1 | – | inactive: 4.26%
COc1ccc(C(C#N)=Cc2ccccc2OC)cc1 | active: 16.4 µM | –
O=C(COc1ccc(/C=N/NC(=O)c2cc3ccccc3o2)cc1Cl)Nc1ccccc1 | active: 7.31 µM | –
COc1ccccc1/C=C/C1(C(=O)NC2CCCC2)CC(=O)N1c1ccc(C)cc1 (configuration not stated) | active: 20.6 µM | –
CCOc1ncccc1C(=O)N1CCN(S(=O)(=O)c2ccc(Br)cc2Cl)CC1 | inconclusive: 20.6 µM [rising, partial curve] | –
Cc1ccc(CC(=O)NCCC(=O)O)cc1 | – | inactive: 6.62%
Cc1nnc(NC(=O)c2nc(S(=O)(=O)Cc3ccccc3C)ncc2Cl)s1 | inconclusive: 23.1 µM [cytotoxic, single point] | –
CC1=C(C(=O)Nc2ccccc2)C(c2ccccc2)n2nc(-c3ccco3)nc2N1 (configuration not stated) | – | inactive: -4.69%
C/C(=N/NC(=O)c1cc(-c2ccc(Br)s2)[nH]n1)c1ccco1 | inconclusive: 29.1 µM [rising, single point] | –
Cc1ccccc1NC(=S)NC(NC(=O)COc1ccccc1)C(Cl)(Cl)Cl (configuration not stated) | inconclusive: 29.1 µM [cytotoxic, single point] | –
C#CCN(C[C@@H]1[C@@H](OC(=O)NCc2ccc(OC)c(OC)c2)[C@@H](OC(=O)NCc2ccc(OC)c(OC)c2)Cn2c(=O)ccc(=O)n21)S(=O)(=O)c1ccc(C)cc1 | inconclusive: 29.1 µM [cytotoxic, single point] | –
COc1cccc(NC(=O)CN2CCC(NC(=O)c3ccccc3C)CC2)c1 | – | inactive: -0.476%
Cc1ccc(CNS(=O)(=O)c2ccccc2[N+](=O)[O-])cc1 | – | inactive: 0.337%
O=C1CCN(Cc2ccccc2)C(=S)N1 | – | inactive: 5.43%
O=C(Nc1cc(C(F)(F)F)ccc1Cl)C(Sc1nnc(-c2cccs2)o1)c1ccccc1 (configuration not stated) | – | inactive: -15.5%
O=C(Nc1ccc(Nc2ccncc2)cc1)c1ccc([N+](=O)[O-])cc1 | – | inactive: -1.68%
Nc1cc(=O)[nH]c(SCCOc2ccccc2)n1 | inconclusive: 9.2 µM [cytotoxic, partial curve] | –
Cc1ccc2oc(=O)c(/C=C(\O)c3sc(C)nc3C)nc2c1 | – | inactive: -10.4%
Cc1cc(S(=O)(=O)NCc2ccncc2)c(C)cc1Br | – | inactive: -17.4%
CC1CN(Cc2ccccc2)c2ccccc2NC1=S (configuration not stated) | inconclusive: 25.9 µM [cytotoxic, single point] | –

Whole records as entered above. Values in the order: Potency	activity change, negative = cytotoxic
O=C(Nc1cc(C(F)(F)F)ccc1Cl)C(Sc1nnc(-c2cccs2)o1)c1ccccc1 (configuration not stated) in the list: –	inactive: -15.5%
Cc1cc(C)c(NC(=O)CSc2nnc(-c3ccccn3)n2N)c(Cl)c1 in the list: –	inactive: -0.38%
O=C1CCN(Cc2ccccc2)C(=S)N1 in the list: –	inactive: 5.43%

Reference: PubChem BioAssay AID1347075 (National Center for Advancing Translational Sciences (NCATS), 2019)
